This passage reports binding results from patent publication US20130078247A1.

The chains behind the UniProt entries cited, without tags or fusion partners. Where a name states a change or a piece, a line headed by the entry shows the natural chain unless it says otherwise. Residues count along the entry.
UniProt Q9JI71, residues 27-686: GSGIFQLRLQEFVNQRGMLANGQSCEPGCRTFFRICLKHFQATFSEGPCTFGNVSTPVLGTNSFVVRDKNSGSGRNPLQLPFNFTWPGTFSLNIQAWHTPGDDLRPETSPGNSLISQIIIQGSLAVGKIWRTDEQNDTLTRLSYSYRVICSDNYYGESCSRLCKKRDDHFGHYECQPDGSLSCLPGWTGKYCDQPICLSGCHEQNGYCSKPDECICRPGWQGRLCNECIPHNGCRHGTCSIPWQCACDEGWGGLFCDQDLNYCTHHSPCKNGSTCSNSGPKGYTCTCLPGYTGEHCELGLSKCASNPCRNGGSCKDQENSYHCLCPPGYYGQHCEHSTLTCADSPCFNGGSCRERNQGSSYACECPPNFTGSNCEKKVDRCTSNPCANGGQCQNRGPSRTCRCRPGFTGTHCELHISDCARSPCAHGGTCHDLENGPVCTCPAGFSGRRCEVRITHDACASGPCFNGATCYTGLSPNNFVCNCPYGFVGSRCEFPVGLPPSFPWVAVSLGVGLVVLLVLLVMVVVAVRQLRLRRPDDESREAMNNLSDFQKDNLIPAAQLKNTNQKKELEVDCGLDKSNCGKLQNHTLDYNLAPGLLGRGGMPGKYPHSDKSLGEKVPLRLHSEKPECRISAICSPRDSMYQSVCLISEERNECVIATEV
UniProt P46531, residues 19-526: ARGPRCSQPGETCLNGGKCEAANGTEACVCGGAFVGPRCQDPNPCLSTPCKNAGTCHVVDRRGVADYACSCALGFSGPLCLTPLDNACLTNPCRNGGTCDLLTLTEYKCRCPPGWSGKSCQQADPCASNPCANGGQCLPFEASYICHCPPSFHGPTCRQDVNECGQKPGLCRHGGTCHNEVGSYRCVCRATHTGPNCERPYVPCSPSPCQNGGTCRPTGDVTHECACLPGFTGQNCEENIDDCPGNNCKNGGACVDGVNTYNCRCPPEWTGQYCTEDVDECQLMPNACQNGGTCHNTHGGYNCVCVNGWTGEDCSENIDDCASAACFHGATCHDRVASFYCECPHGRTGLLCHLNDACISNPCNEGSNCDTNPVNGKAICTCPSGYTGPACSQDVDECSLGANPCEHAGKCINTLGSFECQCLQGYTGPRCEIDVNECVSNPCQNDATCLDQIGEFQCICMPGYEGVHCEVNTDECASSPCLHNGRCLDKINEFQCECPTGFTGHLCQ

For this assay, the target named is mouse DLL4, full length, overexpressed on CHO or HEK293 cells (mouse) (UniProt Q9JI71). The assay is described as follows: FMAT competition: unlabelled rhNotch1-Fc against labelled hNotch1-Fc on CHO-mDLL4 cells.

No constants are given. Whether binding was seen depends on the method and setting. Some entries that bind do so weakly or less than the wild type.

On to “recombinant human Notch1/Fc chimera (R&D Systems) (from UniProt P46531 19-526) (Fc fusion)”, for which the binding entry is “binds”.
